This is one part of the list.
What was measured:
Assay in all cases: log2 fold change, soluble protein after heating vs DMSO (PISA); higher = thermal stabilisation; K562 lysate, 10 uM; active = over 0.2 and 3.5 SD of the protein, either way, in both replicates (recomputed)
alvocidib = compound: CN1CC[C@H](c2c(O)cc(O)c3c(=O)cc(-c4ccccc4Cl)oc23)[C@H](O)C1 [alvocidib]
Method in brief: (§1)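 K562 pellets were dounce-homogenised in PBS pH 7.4 containing 1 mM MgCl2, and the crude extract, at 1 mg/mL protein, was exposed to 10 μM compound for 30 min. Aliquots were heated for 3 min across 48°C-58°C, pooled, brought to 0.5% NP-40 at 4°C and spun at 21,000xg for 90 min, with the supernatant taken as soluble protein. TMTpro 16plex LC-MS/MS with equalised channel sums quantified that protein. Values are log-two fold changes in thermal stability relative to solvent controls, taken from duplicates.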

Tubastatin A = compound: CN1CCc2c(c3ccccc3n2Cc2ccc(C(=O)NO)cc2)C1 [Tubastatin A]
Method in brief: as §1

[1] = compound: CNC(=O)C1=CC=CC=C1NC2=NC(=NC=C2Cl)NC3=C(C=C(C=C3)N4CCOCC4)OC
Method in brief: as §1

defactinib = compound: CNC(=O)c1ccc(Nc2ncc(C(F)(F)F)c(NCc3nccnc3N(C)S(C)(=O)=O)n2)cc1 [defactinib]
Method in brief: as §1

[2] = compound: CNc1nc(-c2ccc3c(N)n[nH]c3c2)cc(N2C[C@@H](C(=O)NC3CCCCC3)CC[C@H]2C)n1
Method in brief: as §1

encorafenib = compound: COC(=O)N[C@@H](C)CNc1nccc(-c2cn(C(C)C)nc2-c2cc(Cl)cc(NS(C)(=O)=O)c2F)n1 [encorafenib]
Method in brief: as §1

[3] = compound: COC(=O)[C@H](CCSC)NC(=O)C1=C(C=C(C=C1)NC[C@H](CS)N)C2=CC=CC=C2
Method in brief: as §1

alisertib = compound: COc1cc(Nc2ncc3c(n2)-c2ccc(Cl)cc2C(c2c(F)cccc2OC)=NC3)ccc1C(=O)O [alisertib]
Method in brief: as §1

[4] = compound: COc1cc2nc(-c3cc(F)ccc3O)nc(N[C@@H]3CNC[C@H]3C(C)(C)O)c2cc1OC
Method in brief: as §1

gefitinib = compound: COc1cc2ncnc(Nc3ccc(F)c(Cl)c3)c2cc1OCCCN1CCOCC1 [gefitinib]
Method in brief: as §1

Target | log2 fold change (alvocidib) | log2 fold change (Tubastatin A) | log2 fold change [1] | log2 fold change (defactinib) | log2 fold change [2] | log2 fold change (encorafenib) | log2 fold change [3] | log2 fold change (alisertib) | log2 fold change [4] | log2 fold change (gefitinib)
PPP1CA (UniProt P62136) | inactive: -0.047 | inactive: 0.001 | inactive: -0.018 | inactive: -0.063 | inactive: -0.016 | inactive: -0.027 | inactive: 0 | inactive: 0.057 | inactive: 0.006 | inactive: 0.018
PRPF4B (UniProt Q13523) | inactive: -0.019 | inactive: 0.004 | inactive: 0.019 | inactive: -0.034 | inactive: 0.031 | inactive: -0.005 | inactive: 0.043 | inactive: 0.013 | inactive: -0.01 | inactive: 0.017
PPP2R5C isoform 5 (UniProt Q13362) | inactive: 0.016 | inactive: -0.018 | inactive: 0.012 | inactive: 0.029 | inactive: -0.048 | inactive: 0.029 | inactive: -0.039 | inactive: 0.002 | inactive: -0.014 | inactive: 0.004
PRKCQ (UniProt Q04759) | inactive: -0.062 | inactive: -0.083 | inactive: -0.059 | inactive: -0.055 | inactive: 0.024 | inactive: -0.007 | inactive: 0.003 | inactive: 0.017 | inactive: 0.122 | inactive: 0.031
PPP1R13L (UniProt Q8WUF5) | inactive: -0.014 | inactive: 0.075 | inactive: 0.007 | inactive: 0.15 |  | inactive: 0.184 | inactive: 0.038 | inactive: -0.257 | inactive: 0.017 | inactive: -0.034
PPIL4 (UniProt Q8WUA2) | inactive: 0.002 | inactive: -0.018 | inactive: 0.041 | inactive: -0.014 | inactive: 0.018 | inactive: 0.02 | inactive: 0.089 | inactive: -0.009 | inactive: 0.003 | inactive: 0.015
PPP1R3D (UniProt O95685) | inactive: -0.058 | inactive: -0.009 | inactive: 0.039 | inactive: 0.088 |  |  |  | inactive: 0.078 | inactive: -0.063 | inactive: 0.01
PPP4R3A (UniProt Q6IN85) | inactive: -0.028 | inactive: 0.02 | inactive: -0.006 | inactive: 0.002 | inactive: -0.005 | inactive: -0.003 | inactive: 0.031 | inactive: 0.007 | inactive: -0.014 | inactive: 0.018
PPP3CC (UniProt P48454) | inactive: 0.013 | inactive: 0.004 | inactive: -0.027 | inactive: -0.017 | inactive: -0.008 | inactive: 0.073 | inactive: -0.004 | inactive: 0.014 | inactive: 0.03 | inactive: 0.005
PPT1 (UniProt P50897) | inactive: 0.01 | inactive: -0.026 | inactive: -0.049 | inactive: 0.022 | inactive: -0.01 | inactive: 0.003 | inactive: 0.145 | inactive: -0.01 | inactive: 0.011 | inactive: 0.014
PPP4R1 (UniProt Q8TF05) | inactive: -0.007 | inactive: -0.088 | inactive: 0.007 | inactive: 0.007 | inactive: -0.021 | inactive: 0.015 | inactive: 0.015 | inactive: 0.002 | inactive: 0 | inactive: 0.019
PREP (UniProt P48147) | inactive: 0.018 | inactive: -0.021 | inactive: 0.018 | inactive: 0.005 | inactive: -0.019 | inactive: -0.024 | active: 0.361 | inactive: -0.011 | inactive: 0.013 | inactive: -0.012
PREB (UniProt Q9HCU5) | inactive: -0.018 | inactive: -0.042 | inactive: 0.011 | inactive: 0.057 | inactive: -0.003 | inactive: -0.014 | inactive: -0.077 | inactive: -0.028 | inactive: 0.017 | inactive: 0.03
PRKAG2 (UniProt Q9UGJ0) | inactive: 0.094 | inactive: -0.132 | inactive: 0.245 | inactive: 0.194 | inactive: -0.183 | inactive: 0.003 | inactive: -0.129 | inactive: -0.002 | inactive: 0.098 | inactive: -0.014
PRDX4 (UniProt Q13162) | inactive: -0.073 | inactive: 0.012 | inactive: -0.027 | inactive: -0.013 | inactive: -0.014 | inactive: 0.019 | inactive: -0.037 | inactive: 0.015 | inactive: 0.003 | inactive: -0.001
PRIMPOL (UniProt Q96LW4) |  | inactive: -0.159 | inactive: 0.036 | inactive: 0.076 | inactive: 0.071 | inactive: 0.055 | inactive: -0.37 | inactive: -0.113 |  | inactive: 0.045
PRKX (UniProt P51817) | inactive: -0.077 | inactive: -0.067 |  | inactive: 0.148 | inactive: 0.46 | inactive: -0.065 | inactive: -0.023 | inactive: -0.064 | inactive: 0.23 | inactive: -0.1
PRMT2 (UniProt P55345) | inactive: -0.119 | inactive: 0.169 |  | inactive: 0.006 | inactive: 0.001 | inactive: -0.046 | inactive: -0.04 |  | inactive: 0.172 | 
PRDM10 isoform 6 (UniProt Q9NQV6) |  | inactive: -0.009 | inactive: 0.077 | inactive: 0.009 |  | inactive: -0.027 | inactive: -0.097 |  | inactive: -0.034 | 
PPIP5K2 (UniProt H0Y9S9) |  | inactive: 0.061 | inactive: -0.036 | inactive: 0.045 | inactive: -0.092 | inactive: 0.164 | inactive: 0.027 |  | inactive: -0.074 | 
PRICKLE3 (UniProt O43900) |  | inactive: -0.217 |  |  |  |  |  |  |  | 
PRPF40A isoform 3 (UniProt O75400) |  | inactive: 0.092 | inactive: -0.048 |  |  | inactive: -0.195 | inactive: 0.093 |  | inactive: 0.038 | 
PPP1R12B isoform 6 (UniProt O60237) |  | inactive: 0.081 | inactive: 0.006 | inactive: -0.046 | inactive: 0.016 | inactive: -0.011 | inactive: 0.145 |  | inactive: 0.072 | 
PROSER3, A0A2R8Y8D9 |  |  |  |  | inactive: 0.021 |  |  |  |  | 
PRELID1 (UniProt Q9Y255) |  | inactive: -0.003 |  | inactive: -0.069 |  |  |  | inactive: -0.1 |  | inactive: 0.129

Target | log2 fold change (alvocidib) | log2 fold change (Tubastatin A) | log2 fold change [1] | log2 fold change (defactinib) | log2 fold change [2] | log2 fold change (encorafenib) | log2 fold change [3] | log2 fold change (alisertib) | log2 fold change [4] | log2 fold change (gefitinib)
PPP2R3B (UniProt Q9Y5P8) | inactive: 0.013 |  |  |  |  |  |  |  | inactive: -0.123 | 
PPP2CA (UniProt E7ESG8) |  |  |  |  |  |  |  | inactive: 0.139 |  | inactive: -0.034
PREP (UniProt H0Y5Y0) | inactive: 0.082 |  |  |  |  |  |  |  | inactive: 0.03 | 
PRNP (UniProt P04156) | inactive: -0.076 | inactive: -0.024 | inactive: 0.111 |  | inactive: 0.152 |  |  | inactive: 0.06 | inactive: 0.017 | inactive: -0.133
PRG4 (UniProt Q92954) | active: -0.826 | inactive: 0.103 |  |  | inactive: 0.204 |  |  | inactive: -0.045 | inactive: 0.093 | inactive: -0.076
PPM1J (UniProt Q5JR12) |  |  |  |  |  |  |  |  | inactive: 0.066 | 
PPP6R3 isoform 2 (UniProt Q5H9R7) | inactive: -0.108 | inactive: 0.102 | inactive: -0.03 |  |  |  |  | inactive: 0.108 |  | inactive: 0.126
PPT2, A0A140T9Y1 |  |  |  |  |  |  |  | inactive: -0.144 |  | inactive: 0.006
PPP1R7 (UniProt C9JD73) |  |  |  |  |  |  |  |  | inactive: 0.006 | 
PRADC1 (UniProt Q9BSG0) | inactive: -0.141 | inactive: 0.04 | inactive: -0.126 |  | inactive: 0.059 |  |  | inactive: 0.109 | inactive: 0.212 | inactive: -0.071
PPTC7 (UniProt Q8NI37) |  | inactive: -0.013 |  | inactive: -0.08 | inactive: -0.094 |  |  |  |  | 
PPP1R14A, A0A0B4J2A3 |  |  | inactive: -0.549 |  |  |  |  |  | inactive: 0.111 | 
PRG2 (UniProt P13727) |  |  |  |  | inactive: -0.02 | inactive: 0.062 | inactive: -0.124 |  | inactive: -0.04 | 
PRDM15 (UniProt P57071) |  | inactive: 0.01 |  |  | inactive: -0.002 |  |  |  |  | 
PPP1R3E (UniProt Q9H7J1) | inactive: -0.022 |  | inactive: 0.056 |  |  |  |  |  |  | 
PPME1 (UniProt Q9Y570) |  |  | inactive: 0.125 |  | inactive: -0.065 | inactive: -0.029 | inactive: -0.059 |  | inactive: 0.014 | 
PPP2CB (UniProt E5RHC1) | inactive: -0.007 | inactive: 0.251 |  |  | inactive: -0.203 |  |  | inactive: -0.05 | inactive: 0.195 | inactive: -0.171
PPP1R14C (UniProt Q8TAE6) | inactive: -0.045 | inactive: -0.033 |  | inactive: -0.002 | inactive: -0.14 | inactive: 0.064 | inactive: 0.014 | inactive: -0.044 | inactive: -0.04 | inactive: 0.032
PPP1R7 isoform 2 (UniProt Q15435) |  | inactive: -0.035 |  |  |  |  |  |  | inactive: -0.038 | 
PPL (UniProt O60437) |  |  |  |  | inactive: -1.09 | inactive: 0.008 | inactive: 0.002 | inactive: -0.005 |  | inactive: 0.061
PPP1R11 (UniProt O60927) | inactive: 0.048 | inactive: 0.077 | inactive: 0.011 |  | inactive: -0.001 | inactive: 0.051 | inactive: -0.027 | inactive: -0.081 | inactive: -0.041 | inactive: -0.09
PPM1B isoform 2 (UniProt O75688) |  | inactive: 0.005 |  |  | inactive: -0.021 | inactive: 0.063 | inactive: 0.039 | inactive: -0.082 | inactive: 0.02 | inactive: 0.12
PPP4R4 (UniProt Q6NUP7) |  | inactive: 0.136 | inactive: 0.066 | inactive: -0.09 | inactive: 0.689 | inactive: -0.183 | inactive: -0.002 | inactive: -0.135 | inactive: 0.084 | inactive: -0.017
PROSER3 (UniProt Q2NL68) | inactive: -0.012 |  | inactive: 0.152 | inactive: -0.047 |  |  |  |  |  | 

A second format for some results above.

| Target | log2 fold change (alvocidib) | log2 fold change (Tubastatin A) | log2 fold change [1] | log2 fold change (defactinib) | log2 fold change [2] | log2 fold change (encorafenib) | log2 fold change [3] | log2 fold change (alisertib) | log2 fold change [4] | log2 fold change (gefitinib) |
| --- | --- | --- | --- | --- | --- | --- | --- | --- | --- | --- |
| PRG2 (UniProt P13727) |  |  |  |  | inactive: -0.02 | inactive: 0.062 | inactive: -0.124 |  | inactive: -0.04 |  |
| PRDM15 (UniProt P57071) |  | inactive: 0.01 |  |  | inactive: -0.002 |  |  |  |  |  |

Source: the supplement of paper PMC10849652
